# Data: paper PMC5688218
# Protein sequences, listed by entry. Tags and fused reporters are not part of them. Residues count along the entry.
# UniProt Q96EQ9: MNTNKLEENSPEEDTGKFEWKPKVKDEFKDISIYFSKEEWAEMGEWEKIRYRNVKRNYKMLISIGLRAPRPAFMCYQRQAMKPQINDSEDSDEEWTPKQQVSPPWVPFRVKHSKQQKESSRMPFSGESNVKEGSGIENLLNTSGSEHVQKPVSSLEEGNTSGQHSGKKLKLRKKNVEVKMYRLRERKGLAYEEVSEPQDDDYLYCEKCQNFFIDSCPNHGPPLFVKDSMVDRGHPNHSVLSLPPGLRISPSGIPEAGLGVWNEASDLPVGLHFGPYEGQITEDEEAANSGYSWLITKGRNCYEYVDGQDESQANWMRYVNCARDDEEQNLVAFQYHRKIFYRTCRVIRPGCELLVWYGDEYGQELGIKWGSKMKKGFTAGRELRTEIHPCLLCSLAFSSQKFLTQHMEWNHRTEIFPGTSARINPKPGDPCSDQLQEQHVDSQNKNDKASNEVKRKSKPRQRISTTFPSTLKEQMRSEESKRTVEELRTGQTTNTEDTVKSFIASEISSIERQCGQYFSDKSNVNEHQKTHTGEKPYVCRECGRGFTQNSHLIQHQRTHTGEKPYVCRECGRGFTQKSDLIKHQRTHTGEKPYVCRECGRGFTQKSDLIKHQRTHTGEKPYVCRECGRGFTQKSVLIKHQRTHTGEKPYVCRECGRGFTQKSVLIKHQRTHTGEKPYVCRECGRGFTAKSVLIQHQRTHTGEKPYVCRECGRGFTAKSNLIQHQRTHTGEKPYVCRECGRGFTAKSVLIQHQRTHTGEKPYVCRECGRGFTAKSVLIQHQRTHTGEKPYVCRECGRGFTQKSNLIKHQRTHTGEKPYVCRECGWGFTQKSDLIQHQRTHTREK
# UniProt Q99L90: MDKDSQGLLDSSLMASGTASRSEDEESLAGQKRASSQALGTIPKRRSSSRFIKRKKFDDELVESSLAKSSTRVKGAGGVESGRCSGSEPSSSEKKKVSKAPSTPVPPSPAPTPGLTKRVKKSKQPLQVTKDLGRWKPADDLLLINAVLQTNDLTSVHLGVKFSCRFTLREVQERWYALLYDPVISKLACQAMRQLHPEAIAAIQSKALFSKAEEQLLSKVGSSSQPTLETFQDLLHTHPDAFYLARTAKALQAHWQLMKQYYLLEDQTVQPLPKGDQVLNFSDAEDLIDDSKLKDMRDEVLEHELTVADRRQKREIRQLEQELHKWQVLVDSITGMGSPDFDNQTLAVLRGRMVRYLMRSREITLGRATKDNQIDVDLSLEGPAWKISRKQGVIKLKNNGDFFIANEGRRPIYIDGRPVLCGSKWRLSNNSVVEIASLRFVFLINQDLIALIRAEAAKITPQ
# UniProt Q9CQJ2, residues 42-290: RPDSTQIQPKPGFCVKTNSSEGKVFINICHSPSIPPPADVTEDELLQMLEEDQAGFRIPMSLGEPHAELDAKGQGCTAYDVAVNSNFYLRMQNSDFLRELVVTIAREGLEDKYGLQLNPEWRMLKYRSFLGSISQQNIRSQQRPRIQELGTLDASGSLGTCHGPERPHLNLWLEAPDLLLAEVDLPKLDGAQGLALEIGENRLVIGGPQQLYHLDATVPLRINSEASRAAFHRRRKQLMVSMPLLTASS
# UniProt Q9QWF0, residues 397-911: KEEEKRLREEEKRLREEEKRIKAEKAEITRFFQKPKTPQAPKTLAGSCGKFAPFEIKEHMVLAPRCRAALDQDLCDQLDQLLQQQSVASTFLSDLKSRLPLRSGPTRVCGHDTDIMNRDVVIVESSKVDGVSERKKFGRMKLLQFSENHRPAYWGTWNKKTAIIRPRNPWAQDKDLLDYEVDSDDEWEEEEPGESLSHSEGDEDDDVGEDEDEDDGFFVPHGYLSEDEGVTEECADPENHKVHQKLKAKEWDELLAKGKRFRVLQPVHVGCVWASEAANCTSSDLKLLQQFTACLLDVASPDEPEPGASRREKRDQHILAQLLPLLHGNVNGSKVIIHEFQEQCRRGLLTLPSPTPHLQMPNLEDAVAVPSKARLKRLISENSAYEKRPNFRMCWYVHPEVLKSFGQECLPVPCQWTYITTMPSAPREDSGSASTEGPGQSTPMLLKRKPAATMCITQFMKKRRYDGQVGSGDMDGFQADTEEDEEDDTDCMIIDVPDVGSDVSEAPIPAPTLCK
# Results are given in words; binding and its absence hold for the method and conditions named. Some results given as binding are weak or reduced against the parent protein; the word gives no strength.
# Target: mouse PRDM9, full length (Gal4 BD-PRDM9 FL) (mouse) (UniProt Q96EQ9)
# Assay: two-hybrid; Gal4 AD fusions (Y187) mated with Gal4 BD fusions (AH109); growth of diploids on −LWH and −LWHAd after 3 days at 30 °C, by streaking or spotting; 5 mM 3-AT added to −LWH for self-activating constructs
row,binding,Substance
1,binds,"mouse MCRS1, full length (Gal4 AD fusion) (from UniProt Q99L90 1-462)"
2,binds,mouse PIH1D1 42–290 (Gal4 AD fusion) (from UniProt Q9CQJ2 42-290) (domain or fragment)
3,binds,mouse CHAF1A 397–911 (Gal4 AD fusion) (from UniProt Q9QWF0 397-911) (domain or fragment)
